Results: article PMC7862700
The entries are a selection whose mix differs from that of the whole data set. At the low end of the ranking, values are background and their order means little.

molecular target: SPI1 (UniProt P17947); test: DAPPL (digital affinity profiling via proximity ligation, sequencing); conditions: 10 mM Tris-HCl pH 7.5, 50 mM NaCl, 1 mM DTT, 4% glycerol, room temperature, 30 min; GST-TFs on glutathione beads, 16-mer random dsDNA library, 0.1% …; high values mean tight binding; double strand, one strand shown; scale: fold enrichment (6-mer frequency, TF over GST control)

Row | Sequence | binding signal
1 | GTAGTC | 0.667
2 | ATCGAG | 0.836
3 | ACGGGC | 0.74
4 | AGACCG | 0.489
5 | GAGCTG | 0.737
6 | ACAGTA | 0.876
7 | CCCAGT | 0.674
8 | AGCCAA | 0.868
9 | TGACGT | 0.977
10 | GGTGTG | 0.719
11 | GACTCA | 0.933
12 | CAGGGG | 0.519
13 | GGCGAC | 0.772
14 | CCTGAG | 0.712
15 | ACAACG | 0.93
16 | AGGGGG | 0.583
17 | GAGTAC | 0.521
18 | CGTAAG | 0.727
19 | GTCGGC | 0.388
20 | ACCCAG | 0.698

Row | Sequence | binding signal
21 | CCAGGG | 0.535
22 | ACGGTC | 0.721
23 | TCAGGC | 0.707
24 | TGAGCG | 0.58
25 | AGACGC | 0.72
26 | ACACGT | 0.848
27 | GGTGTA | 0.847
28 | AGCCGC | 0.894
29 | AAGAGT | 0.783
30 | GTGTAT | 0.968
31 | GACGAT | 0.828
32 | GTGTGG | 0.766
33 | GTGGAC | 0.866
34 | TGTAGG | 0.735
35 | ATTGGA | 0.88
36 | GTACGT | 0.88
37 | CGGGGG | 0.42
38 | GGACAG | 0.549
39 | GGGCGC | 0.57
40 | GCACCG | 0.66

Rewritten as tab-separated lines: entries from further up
Row	Sequence	binding signal
21	CCAGGG	0.535
24	TGAGCG	0.58
25	AGACGC	0.72
27	GGTGTA	0.847
35	ATTGGA	0.88
37	CGGGGG	0.42
40	GCACCG	0.66
